In PubChem BioAssay AID2685 (National Center for Advancing Translational Sciences (NCATS), 2010):
About 2,100 (0.66%) of roughly 320,000 compounds were called active. The inconclusive results got no clear call from the source; some entries with a clear call stand among them for comparison. The call rests on the fitted dose curve; in most records, active means well fitted inhibition curve with a large enough effect in the signal ratio, with a control signal flat (not every such curve was filed as active); inconclusive means small, poorly fitted or top-dose-only effect, or effect the other way, or a change in a side signal; inactive means flat fitted curve, though single readings scatter; the % refers to the signal ratio. Where the call is inconclusive, the potency comes from a doubtful curve fit.

experiment: qHTS Assay for Lipid Storage Modulators in Drosophila S3 Cells; details: BODIPY lipid droplet fluorescence, 18-24 h, cells fed with added oleic acid; lipid storage change, negative = inhibition: at 46.1 µM (top of the series) unless noted
Summary of the method: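 Drosophila S3 cells loaded with oleic acid (400 uM, as added) and compounds at several concentrations; lipid droplets imaged by 488-nm laser-scanning cytometry, 500–530 nm intensity and object ratio to cell channel. Percent activity normalized to 20 uM Triacsin C.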
On the % scale 0 is the no-effect control and ±100 the full control effect; potency means the concentration at half of the fitted maximal effect.

SMILES	lipid storage change, negative = inhibition	Potency	outcome
COC(=O)c1ccc(NC(=O)CSc2nnc(COc3ccc4c(c3)CCCC4)o2)cc1	inconclusive: 57.1%	–	–
CCN(CC)c1ccc(/C=C2\CCC(/C=C(\C#N)C(=O)Nc3ccccc3F)=C2N2CCOCC2)cc1	–	active: 0.58 µM	–
Cc1ccc(C(=O)CC(=O)COc2ccc(Cl)cc2)cc1	–	inconclusive: 29.1 µM [falling, single point]	–
COc1cc(C(=O)NCCCN(C)C)ccc1OCC(=O)Nc1cccc(C(F)(F)F)c1	inconclusive: 21.9%	–	–
Clc1ccc(Cn2ncc3c(N4CCCC4)ncnc32)cc1	–	–	inactive [at 46.1 µM]
Cc1ccc(NC(=O)CCNS(=O)(=O)c2ccc3[nH]c(=O)oc3c2)cc1N(C)C	inconclusive: -18.2%	–	–
CCN(CC)CCn1c(NCc2ccc(OC)cc2)nc2ccccc21	inconclusive: 143%	–	–
O=[N+]([O-])c1ccccc1S(=O)(=O)N1CCCCC1	–	active: 3.66 µM	–
CCCCSCCCNC(=O)c1ccc2c(c1)N(CC)C(=O)c1ccccc1S2=O (stereo not given)	inconclusive: -26.1%	–	–
Cc1ccc(NC(=S)Nc2cccc3ccccc23)cc1F	–	inconclusive: 8.2 µM [activator, partial curve]	–
O=C(O)c1cccc(N=C2NC(=O)C(CO)(CO)S2)c1	–	inconclusive: 0.461 µM [activator, partial curve]	–
Cc1ccc(NC(=O)c2cc(S(=O)(=O)NCCC3=CCCCC3)ccc2F)cc1F	–	inconclusive: 16.4 µM [cytotoxic, single point]	–
Cc1c(C(c2ccc(C(=O)O)cc2)c2c(C)n(C)n(-c3ccccc3)c2=O)c(=O)n(-c2ccccc2)n1C	inconclusive: -18.9%	–	–
Cc1ccc(NC(=O)C2C3CCC(O3)C2C(=O)O)c(Br)c1 (stereo not given)	–	inconclusive: 0.58 µM [falling, single point]	–
CC(C)CCNC(=O)c1ccc(Cl)c(NC(=O)Cc2ccccc2)c1	inconclusive: 26%	–	–
CCC1CCCCN1C(=O)CSc1nc2ncccc2[nH]1 (stereo not given)	inconclusive: -12.1%	–	–
CCOC(=O)CC(=O)CSc1nc2nc(C)cc(C)n2n1	–	inconclusive: 7.31 µM [activator, partial curve]	–
Cc1ccc(N2CC(C(=O)Nc3ccc(S(=O)(=O)Nc4ncccn4)cc3)CC2=O)cc1C (stereo not given)	–	inconclusive: 4.11 µM [activator, partial curve, poor fit]	–
COC(=O)C1=C(N)OC2=C(C(=O)CC(C)(C)C2)C1c1cc2c(cc1Cl)OCO2 (stereo not given)	–	inconclusive: 29.1 µM [falling, single point]	–
O=C1CCCC/C1=N\Nc1ccc(OCc2ccccc2)cc1	inconclusive: 27.6%	–	–
Cc1nn(-c2ccccc2)c2sc(-c3nnc(SCC(=O)O)o3)cc12	inconclusive: -6%	–	–
CC1=NN(C(=O)c2ccc(Cl)cc2)C(O)(c2ccccc2)C1 (stereo not given)	–	inconclusive: 10.3 µM [falling, partial curve]	–
Cc1ccc(NC(=O)CN(C)C(=O)c2cccc(S(=O)(=O)N3CCCC3)c2)cc1	–	inconclusive: 25.9 µM [falling, single point]	–
COC(=O)c1ccccc1NC(=O)CN1CCC(C(=O)c2ccc3c(c2)OCCO3)CC1	–	inconclusive: 1.3 µM [activator, full curve, poor fit]	–

Sorted by molecular weight (low to high): some entries from above
SMILES	lipid storage change, negative = inhibition	Potency	outcome
CC(C)CCNC(=O)c1ccc(Cl)c(NC(=O)Cc2ccccc2)c1	inconclusive: 26%	–	–
COC(=O)C1=C(N)OC2=C(C(=O)CC(C)(C)C2)C1c1cc2c(cc1Cl)OCO2 (stereo not given)	–	inconclusive: 29.1 µM [falling, single point]	–
Cc1ccc(NC(=O)CN(C)C(=O)c2cccc(S(=O)(=O)N3CCCC3)c2)cc1	–	inconclusive: 25.9 µM [falling, single point]	–

(list continues)

SMILES	lipid storage change, negative = inhibition	Potency	outcome
CC(=O)c1ccc(OC(=O)CCc2ccccc2)cc1	–	inconclusive: 29.1 µM [activator, single point]	–
COCCCN(CC(=O)O)S(=O)(=O)c1ccccc1	inconclusive: -32.7%	–	–
O=C(c1cccn(Cc2ccc(Cl)c(Cl)c2)c1=O)N1CCOCC1	–	inconclusive: 3.66 µM [falling, single point]	–
CC(NC(=O)c1ccc(S(=O)(=O)C(F)F)cc1)c1ccccc1 (stereo not given)	–	inconclusive: 0.13 µM [cytotoxic, full curve, poor fit]	–
CCOc1ccc(CC(=O)NCc2ccc3c(c2)cc(C)n3C)cc1	inconclusive: 10.9%	–	–
CN1CCCN(C(=O)c2ccc(Cl)c(S(=O)(=O)N(C)c3ccccc3)c2)CC1	–	inconclusive: 6.51 µM [falling, partial curve, poor fit]	–
Cc1cc([N+](=O)[O-])nn1CC(=O)N1c2ccccc2CC1C (stereo not given)	–	inconclusive: 29.1 µM [activator, single point]	–
O=C(NCCSCc1ccc(Cl)cc1)c1cccs1	–	inconclusive: 29.1 µM [falling, single point]	–
Cc1nc2ccccc2c(=O)n1NC(=O)CCC(=O)O	inconclusive: -53.7% [at 0.00295 µM]	–	–
CC(C)(C)C(=O)Nc1ccccc1C(=O)NCc1ccco1	–	inconclusive: 6.51 µM [activator, single point]	–
Cc1cccc(N2CCN(C(=O)CCN3C(=S)NC(C)(C)CC3C)CC2)c1C (stereo not given)	inconclusive: 90.4%	–	–
COc1ccc(COc2ccccc2C(=O)NCc2ccccc2)cc1F	inconclusive: 53.9%	–	–
COC(=O)c1cn(NC(=O)c2ccc([N+](=O)[O-])cc2Cl)c(=O)c2ccccc12	inconclusive: 39.1%	–	–
CCC(=O)N1CCc2cc(S(=O)(=O)NCCC(=O)N3CCN(c4cccc(OC)c4)CC3)ccc21	–	inconclusive: 23.1 µM [activator, partial curve]	–
Cc1ccc(S(=O)(=O)NC(C)C(=O)NC2CC2)cc1 (stereo not given)	–	inconclusive: 29.1 µM [activator, single point]	–
COC(=O)c1cc2n(n1)CCN(Cc1ccccc1F)C2=O	inconclusive: -56.3%	–	–
Cc1cc(=O)oc2cc(NC(=O)c3c(Cl)cnn3C)ccc12	inconclusive: -37.4%	–	–
CCNC(=O)C(=O)Nc1ccc(OC)c(Cl)c1	inconclusive: -25.7%	–	–
CC(C)N(C(=O)c1ccc(C(=O)Nc2ccc([N+](=O)[O-])cc2)cc1)C(C)C	–	inconclusive: 25.1 µM [falling, single point]	–
O=C(CCN1CCN(C(c2ccccc2)c2ccccc2)CC1)N/N=C/c1ccc(O)cc1O	–	inconclusive: 29.1 µM [falling, single point]	–
CCOC(=O)C1=C(CSc2nccn2C)NC(=O)NC1c1ccc2c(c1)OCO2 (stereo not given)	–	inconclusive: 1.64 µM [activator, partial curve]	–
COc1cc2c(cc1OC)CN(C(=O)/C=C/c1ccccc1[N+](=O)[O-])CC2	–	inconclusive: 0.058 µM [activator, full curve, poor fit]	–
CCOC(=O)C12CNC(=O)C(C(=O)OCC)(CNC1=O)C2	inconclusive: -26.8%	–	–
COc1cc(NS(=O)(=O)c2ccc(C)cc2)ccc1-n1cnnn1	inconclusive: 63.7%	–	–

SMILES	lipid storage change, negative = inhibition	Potency	outcome
CCOc1ccc(/C=c2\sc3nc(-c4ccco4)nn3c2=O)cc1OCC	–	inconclusive: 32.6 µM [falling, single point]	–
CC(/C=C/C=C/c1ccccc1)=N/NC(=O)CNc1ccc(C)cc1	inconclusive: 382%	–	–
Cc1cc(NS(=O)(=O)c2ccc(NC(=O)c3cc(-c4ccccc4Cl)nc4ccccc34)cc2)no1	–	inconclusive: 29.1 µM [activator, single point]	–
O=C(CCNC(=O)C1CCN(S(=O)(=O)c2ccccc2)CC1)Nc1ccccc1	inconclusive: -1.94%	–	–
COc1ccc(S(=O)(=O)NCCc2ccco2)cc1OC	inconclusive: 0.513%	–	–
COCCOC(=O)C1=C(N)OC2=C(C(=O)CCC2)C1c1cccnc1 (stereo not given)	–	inconclusive: 1.64 µM [activator, partial curve]	–
CCOc1ncccc1C(=O)N1CCN(S(=O)(=O)c2cccs2)CC1	–	inconclusive: 0.291 µM [activator, partial curve, poor fit]	–
CCCC1=C(C(=O)OCC)C(c2c(C)nn(-c3ccccc3)c2Cl)C(C#N)=C(N)O1 (stereo not given)	–	inconclusive: 0.58 µM [activator, single point]	–
CCOC(=O)N1CCN(c2ncnc3scc(-c4ccccc4)c23)CC1	inconclusive: -15.5%	–	–
O=C(CC1N=C2c3ccccc3N=C(SCc3ccc(Cl)cc3)N2C1=O)NCc1ccco1 (stereo not given)	inconclusive: 25.9%	–	–
COc1cccc(C2CC(c3ccc(Cl)cc3Cl)Nc3nc(N)nn32)c1 (stereo not given)	–	inconclusive: 1.46 µM [activator, full curve]	–
Cc1cc(C)c(NC(=S)NC(=O)c2c(Cl)c(C)nn2C)c([N+](=O)[O-])c1	inconclusive: 32.2%	–	–
Cn1c(=O)c2c(nc(NCC(O)CO)n2CCc2ccccc2)n(C)c1=O (stereo not given)	inconclusive: -10.3%	–	–
COc1ccc(N2C(=O)CC(N3CCOCC3)C2=O)cc1 (stereo not given)	–	inconclusive: 18.4 µM [falling, single point]	–
CN(CCNC(=O)c1cn(C)c2ccc(S(=O)(=O)N3CCCC3)cc2c1=O)CCc1ccccc1	inactive: 22.9%	–	–
CCn1c(=S)sc2c(=O)[nH]c(SCC(=O)Nc3cc(OC)ccc3OC)nc21	inconclusive: 286%	–	–
CC(=O)Nc1ccc(OCC[n+]2cccc(C(N)=O)c2)cc1	inconclusive: -40.9%	–	–
NC(=O)CSc1nnc(-c2ccco2)n1-c1ccccc1	inconclusive: -18%	–	–
CC1CN(CCOc2cccc(Oc3ccccc3)c2)CC(C)O1 (stereo not given)	–	inconclusive: 18.4 µM [falling, single point]	–
CCOc1ccc(C(C)(N)C(=O)O)cc1 (stereo not given)	–	inconclusive: 0.206 µM [falling, full curve]	–
COCc1cc(C)nc(OCC(=O)N/N=C/c2ccc(C)o2)c1C#N	–	inconclusive: 0.461 µM [falling, full curve, poor fit]	–
COc1cc2c(OC(C)=O)c3c(c(-c4ccc5c(c4)OCO5)c2cc1OC)C(=O)OC3	–	inconclusive: 18.4 µM [falling, partial curve, poor fit]	–
